This is an account of results in patent US20240101667A1, “METHODS FOR IDENTIFYING LILRB-BLOCKING ANTIBODIES” (THE BOARD OF REGENTS OF THE UNIVERSITY OF TEXAS SYSTEM, priority 2020, published 2024).

Protein sequences, listed by entry. Tags and fused reporters are not part of them. Residues count along the entry.
UniProt O75022, residues 24-631: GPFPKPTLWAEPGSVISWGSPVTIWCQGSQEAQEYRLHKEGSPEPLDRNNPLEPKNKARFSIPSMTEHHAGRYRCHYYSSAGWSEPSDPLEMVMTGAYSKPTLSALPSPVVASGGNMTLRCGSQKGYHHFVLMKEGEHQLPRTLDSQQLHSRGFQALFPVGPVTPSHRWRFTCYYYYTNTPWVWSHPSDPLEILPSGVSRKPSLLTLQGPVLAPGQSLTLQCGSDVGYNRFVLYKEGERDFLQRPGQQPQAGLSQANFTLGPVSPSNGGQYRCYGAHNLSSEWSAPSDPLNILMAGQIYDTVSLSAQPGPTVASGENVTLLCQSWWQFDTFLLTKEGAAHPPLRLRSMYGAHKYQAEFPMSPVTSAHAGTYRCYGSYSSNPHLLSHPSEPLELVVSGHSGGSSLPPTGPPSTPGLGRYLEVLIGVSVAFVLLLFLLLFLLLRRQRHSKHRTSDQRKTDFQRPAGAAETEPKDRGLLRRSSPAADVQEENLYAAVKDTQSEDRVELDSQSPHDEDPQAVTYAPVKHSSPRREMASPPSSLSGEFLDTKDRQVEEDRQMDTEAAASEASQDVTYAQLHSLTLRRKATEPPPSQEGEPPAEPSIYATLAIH
UniProt P29350: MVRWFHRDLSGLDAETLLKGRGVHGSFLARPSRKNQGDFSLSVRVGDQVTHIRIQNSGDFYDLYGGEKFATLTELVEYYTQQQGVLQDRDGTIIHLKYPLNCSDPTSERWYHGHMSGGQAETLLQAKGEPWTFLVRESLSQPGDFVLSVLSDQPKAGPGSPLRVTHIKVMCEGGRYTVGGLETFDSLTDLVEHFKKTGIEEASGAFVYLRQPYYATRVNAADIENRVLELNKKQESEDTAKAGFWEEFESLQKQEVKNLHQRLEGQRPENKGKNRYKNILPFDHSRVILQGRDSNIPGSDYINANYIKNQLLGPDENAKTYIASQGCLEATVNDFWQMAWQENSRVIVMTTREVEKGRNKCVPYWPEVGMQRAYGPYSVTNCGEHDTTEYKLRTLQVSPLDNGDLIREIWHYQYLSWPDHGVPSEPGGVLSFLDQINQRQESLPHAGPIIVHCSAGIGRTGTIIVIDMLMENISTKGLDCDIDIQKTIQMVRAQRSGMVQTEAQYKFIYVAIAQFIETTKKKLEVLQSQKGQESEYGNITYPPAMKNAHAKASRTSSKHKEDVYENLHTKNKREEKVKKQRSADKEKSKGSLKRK

No constants are given. Whether binding was seen depends on the method and setting. Binding seen in cells or lysates may run through a third protein. Some results given as binding are weak or reduced against the parent protein; the word gives no strength.

This test addresses LILRB3-hFc (full-length LILRB3 fused with hFc at the C-terminus) (human) (UniProt O75022). Description: co-immunoprecipitation in THP-1 cells stably expressing LILRB3-hFc.

“SHP-1 (from UniProt P29350 1-595) (enzyme)”: the binding result was “binds”.
